Data on 13 compounds can be found in the supplement of paper PMC8256030.

SMILES strings stand for the structures. Values joined by “and” are separate entries in the source; they are usually repeats but may differ in a detail not shown here. Identical values can stand only once. Counter-ions that a name gives are not always drawn. This is one part of the list. This data set is noisy: repeats of one test often differ as much as different tests do.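 HEK293T cells were given each compound shortly before transfection with a reporter in which red mCherry is followed by the SARS-CoV-2 frameshift element and then GFP in the −1 frame, so GFP appears only after frameshifting.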

In this test the test system is HEK293T. Briefly: percent viability (nuclei count) relative to control; higher = more viable cells. To be noted: 10 µM; 24 h.
Regarding `NCCc1c[nH]cn1` [Histamine Phosphate], the percent viability was determined as 164%.
On to `NC(N)=NC(=O)Cc1c(Cl)cccc1Cl` [Guanfacine·HCl], for which the percent viability was found to be 173%.
On to `CC1=C(C(=O)OC(C)C)C(c2cccc([N+](=O)[O-])c2)C(C(=O)OC2CN(C(c3ccccc3)c3ccccc3)C2)=C(N)N1` (stereo not drawn) [azelnidipine], for which the percent viability was determined as 57.6%.
As for `CC1=C(/C=C/C(C)=C/C=C/C(C)=C/C=C/C=C(C)/C=C/C=C(C)/C=C/C2=C(C)CCCC2(C)C)C(C)(C)CCC1`, the percent viability was 255%.
`C[C@H](NC(=O)[C@@H]1CCC(=O)N1)C(=O)N[C@@H](CCCCN)C(=O)N[C@@H](CO)C(=O)N[C@@H](CCC(N)=O)C(=O)NCC(=O)NCC(=O)N[C@@H](CO)C(=O)N[C@@H](CC(N)=O)C(=O)O` [nonathymulin]: the percent viability turned out to be 106%.
As for `CN1CCN(C(c2ccccc2)c2ccccc2)CC1` [cyclizine], the percent viability came to 135%.
For `CC(=O)Oc1cc2c(s1)CCN(C(C(=O)C1CC1)c1ccccc1F)C2` (stereo not drawn), the percent viability was determined as 116%.
On to `CCc1cc2c(cc1CC)CC(NC[C@H](O)c1ccc(O)c3[nH]c(=O)ccc13)C2` [Indacaterol], for which the percent viability stood at 315%.
Consider `CCCCCc1ccc(C)cc1O` [amylmetacresol], for which the percent viability is 192%.
As for `CCCc1c2oc(C(=O)O)cc(=O)c2cc2c(=O)cc(C(=O)O)n(CC)c12` [nedocromil], the percent viability was determined as 254%.
With `Clc1ccc(CO/N=C(\Cn2ccnc2)c2ccc(Cl)cc2Cl)c(Cl)c1` [Oxiconazole], the percent viability was 309% and 203%.
As for `CN1CCN(C(c2ccccc2)c2ccc(Cl)cc2)CC1` (stereo not drawn), the percent viability was 202%.
Regarding `N=C(N)NC(=N)N1CCOCC1` [moroxydine], the percent viability was found to be 137%.
